Reference: article PMC6925144, “A prospective compound screening contest identified broader inhibitors for Sirtuin 1” (Scientific Reports, 2019)
In all, about 3,200 compounds were measured (“TSA(without NAD+) / Primary screening (TSA) / delta Tm (K)”: median about -0.07, highest 2% from about 0.37 on). The list shows a part of the results.

Chains of the proteins cited; added tags and fusions are not shown. Residues count along the entry.
UniProt Q96EB6, 2-747 limits assumed: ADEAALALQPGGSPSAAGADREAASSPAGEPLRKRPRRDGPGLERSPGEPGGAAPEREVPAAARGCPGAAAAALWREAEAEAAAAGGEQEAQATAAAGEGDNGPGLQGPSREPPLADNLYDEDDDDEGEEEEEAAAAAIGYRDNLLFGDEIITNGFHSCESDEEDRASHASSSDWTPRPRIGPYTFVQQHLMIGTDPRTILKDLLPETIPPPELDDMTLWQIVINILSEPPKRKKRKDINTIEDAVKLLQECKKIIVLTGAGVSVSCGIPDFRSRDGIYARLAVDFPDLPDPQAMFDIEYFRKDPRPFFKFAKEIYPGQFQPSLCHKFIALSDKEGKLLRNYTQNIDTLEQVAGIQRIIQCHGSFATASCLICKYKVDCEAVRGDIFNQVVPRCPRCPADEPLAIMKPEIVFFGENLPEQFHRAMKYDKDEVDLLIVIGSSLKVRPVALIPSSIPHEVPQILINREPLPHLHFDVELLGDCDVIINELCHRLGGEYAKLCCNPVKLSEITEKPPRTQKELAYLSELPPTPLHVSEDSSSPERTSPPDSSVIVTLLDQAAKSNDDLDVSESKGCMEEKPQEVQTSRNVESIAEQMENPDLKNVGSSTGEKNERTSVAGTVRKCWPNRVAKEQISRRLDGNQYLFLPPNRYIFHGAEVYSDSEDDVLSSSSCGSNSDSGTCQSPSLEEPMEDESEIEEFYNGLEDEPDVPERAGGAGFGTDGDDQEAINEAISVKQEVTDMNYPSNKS

Target: NAD-dependent deacetylase Sirtuin 1 (human, UniProt Q96EB6)
Test: primary screen, delta tm
Design: single well (n = 1)
Details: 10 µM
In short: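 Thermal shift of Sirtuin 1 measured without NAD+, compound at 10 µM (n = 1); value is ΔTm, with hits defined as ΔTm > 0.45 K or < −1.5 K. Hits retested at 5, 10, 20 µM (n = 4) and counterscreened on bovine carbonic anhydrase and ABL1 SH2 domain.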

| Compound | TSA(without NAD+) / Primary screening (TSA) / delta Tm (K) |
| --- | --- |
| O=C(NC12CC3CC(CC(C3)C1)C2)c1ccccc1C(=O)OCC(=O)N1CCc2ccccc21 | -0.03 K |
| NC(=O)C1CCN(Cc2nc3c(Br)cc(Br)cc3c(=O)[nH]2)CC1 | -0.07 K |
| O=C(O)CSCC(=O)O | -0.22 K |
| Nc1cccc(N2C(=O)c3ccccc3C2=O)c1 | -0.13 K |
| O=C1NC(=S)N/C1=C\c1cc(Br)ccc1O | -0.23 K |
| NC(=O)c1cc2sc3ccccc3c2s1 | -0.23 K |
| Cn1c(SCc2cccc(C#N)c2)nc2ccsc2c1=O | -0.24 K |
| COC(=O)NCC(=O)NCc1ccc(Cn2cnc3ccccc32)cc1 | -0.14 K |
| O=C(O)Cc1cc(F)cc2c1OCOC2 | -0.04 K |
| NCCCC(N)C(=O)O (stereo not drawn) | -0.02 K |
| COC(=O)c1ncccc1N1CCC(C(O)c2ccccc2)CC1 (stereo not drawn) | -0.08 K |
| O=C(Nc1ccc(OC(F)F)c(Cc2ccccc2)c1)C1=COCCO1 | -0.12 K |
| NCC(N)C1CCC1 (stereo not drawn) | -0.31 K |
| CC(C)C(OC(=O)Cc1coc2cc(O)ccc12)C(=O)NC(N)=O (stereo not drawn) | -0.08 K |
| COCCNc1nnc(SCc2cnc(-c3ccccc3)s2)s1 | -0.01 K |
| Cn1ncc2c(N3CCN(Cc4ccc5c(c4)CCO5)CC3)ncnc21 | -0.13 K |
| CC1CC(C(=O)Nc2ncc(C(N)=O)s2)CCO1 (stereo not drawn) | 0.03 K |
| CCC(C)(N)CN (stereo not drawn) | -0.04 K |
| CCOc1ccc(/C=C(/C#N)C(=O)c2c[nH]c3cc(F)ccc23)cc1 | 0.06 K |
| O=[N+]([O-])c1cnn(-c2ncnc3c2cnn3-c2ccccc2)c1 | -0.02 K |
| CN(CCCNC(=O)c1ccc2ccccc2c1)Cc1ccccc1 | -0.27 K |
| O=C(COC(=O)CON=C1c2ccccc2-c2ccccc21)Nc1ccc2c(c1)OCO2 | 0.17 K |

| Compound | TSA(without NAD+) / Primary screening (TSA) / delta Tm (K) |
| --- | --- |
| CC1CC(=O)Nc2ccccc2N1C(=O)c1ccc2ccccc2c1 (stereo not drawn) | -0.01 K |
| O=c1cc(N2CCC(C(O)c3ccccc3)CC2)nc2ccccn12 (stereo not drawn) | -0.15 K |
| O=C(CN1C(=O)NC2(CCc3ccccc32)C1=O)NC(c1ccccc1)c1ccc(Cl)cc1 (stereo not drawn) | -0.03 K |
| Oc1ccc(/C=N/c2cccc3cnccc23)c(O)c1O | -0.31 K |
| Cc1cc(C#N)ccc1S(=O)(=O)N1CCC(N)C1 (stereo not drawn) | 0.02 K |
| O=C1/C(=C\c2ccc(Br)cc2F)COc2ccccc21 | 0.18 K |
| COc1ccc(S(=O)(=O)Nc2ccc(C(=O)NCC(=O)NCc3nnc4ccccn34)cc2)cc1 | -0.03 K |
| COc1ccc(OC)c(C2C(C(=O)/C=C/c3ccco3)=C(O)C(=O)N2CCCN2CCOCC2)c1 (stereo not drawn) | -0.03 K |
| Cc1ccc(C(=O)C2=C(O)C(=O)N(CCCN3CCOCC3)C2c2ccccn2)o1 (stereo not drawn) | 0.09 K |
| O=C(C1=C(O)C(=O)N(CCCN2CCOCC2)C1c1ccco1)c1ccc(F)cc1 (stereo not drawn) | -0.08 K |
| O=C(Nc1cccnc1)c1ccc(F)cc1Br | -0.18 K |
| COc1ccc(OC)c(C=C2C(=O)NC(=S)NC2=O)c1 | -0.24 K |
| Cc1noc(C)c1CC(=O)OCc1cn(-c2ccccc2)nc1-c1ccc(Cl)cc1 | 0.22 K |
| Cc1[nH]c2ccccc2c1C(=O)CN1CCCC(C(N)=O)C1 (stereo not drawn) | -0.15 K |
| Cc1ccc(CCC2CCNCC2)cc1 | -0.23 K |
| COc1cccc2cc(C(=O)C3=C(O)C(=O)N(CCCN4CCOCC4)C3c3ccncc3)oc12 (stereo not drawn) | 0.02 K |
| C[C@@H](N)CCO | -0.18 K |
| N#Cc1ccc(C(=O)Nc2c(Cl)cccc2Cl)cc1 | 0.07 K |
| O=C(Nc1ccc(N2CCN(Cc3ccccc3)CC2)cc1)c1cccc(-n2cnnn2)c1 | -0.08 K |
| O=C(Nc1cccc(S(=O)(=O)N2CCOCC2)c1)C1=COCCO1 | 0.03 K |
| NCCC[C@@H](N)C(=O)O | -0.12 K |
| Cc1nnc(N2CCN(c3ncc(Br)cn3)CC2)c(C(N)=O)c1C | -0.31 K |

| Compound | TSA(without NAD+) / Primary screening (TSA) / delta Tm (K) |
| --- | --- |
| NCC1(CN)CCCCC1 | -0.23 K |
| Cc1ccc2[nH]c3c(c2c1)CC(N)CC3 (stereo not drawn) | -0.08 K |
| O=C(CSc1nnc(-c2ccccc2)o1)NCCCc1ccccc1 | -0.18 K |
| COc1ccc(C(=O)C2=C(O)C(=O)N(CCCN3CCOCC3)C2c2ccccc2)cc1C (stereo not drawn) | 0.06 K |
| O=C(C1CCN(c2cc(=O)n3ccccc3n2)CC1)N1CCCC1 | -0.05 K |
| CC(=O)NCCC(=O)C(C#N)C(=O)c1c[nH]c2cc(Cl)ccc12 (stereo not drawn) | -0.32 K |
| COc1cccc(C(=O)C2=C(O)C(=O)N(CCCN3CCOCC3)C2c2ccncc2)c1 (stereo not drawn) | -0.18 K |
| CC(NC(=O)Cc1cc2ccccc2[nH]c1=O)c1ccc2ccccc2c1 (stereo not drawn) | -0.14 K |
| CCCOc1ccc(C2C(C(=O)c3ccccc3)=C(O)C(=O)N2CCCN2CCOCC2)cc1 (stereo not drawn) | 0.07 K |
| Cc1nnnn1Cc1cn2c(C)cccc2n1 | -0.23 K |
| O=C(NCC1CC1)c1ccc2[nH]c3c(c2c1)CCCCC3 | -0.12 K |
| CCOC(=O)c1oc2ccccc2c1COC(=O)Cn1cnnn1 | -0.33 K |
| N#Cc1c(Cn2nnc3ccccc3c2=O)cn2ccccc12 | 0.07 K |
| Cc1nsc(NCc2cccnc2N2CCC(C(N)=O)CC2)n1 | 0.12 K |
| O=C1CCC(C(=O)N(C2CCCC2)C2CC2)N1 (stereo not drawn) | -0.15 K |
| CC(Oc1ccc(F)c(Cl)c1)C(N)=O (stereo not drawn) | -0.17 K |
| O=C(O)CCn1cnc2sccc2c1=O | -0.21 K |
| O=C(O)CCSc1ccc(F)cc1 | -0.03 K |
| O=C(Nc1cc(S(=O)(=O)N2CCOCC2)ccc1OCC(F)(F)F)C1=COCCO1 | 0.07 K |
| O=C(c1cnc2c3ccccc3nn2c1)c1ccccc1O | 0.06 K |
| CCC(C)NC (stereo not drawn) | -0.18 K |
| CC1CN(Cc2ccc(F)cc2)CCN1C(C)c1nc(C2CC2)no1 (stereo not drawn) | 0.08 K |

An excerpt from the list above, for reference:

| Compound | TSA(without NAD+) / Primary screening (TSA) / delta Tm (K) |
| --- | --- |
| Cc1ccc2[nH]c3c(c2c1)CC(N)CC3 (stereo not drawn) | -0.08 K |
| O=C(CSc1nnc(-c2ccccc2)o1)NCCCc1ccccc1 | -0.18 K |
| COc1ccc(C(=O)C2=C(O)C(=O)N(CCCN3CCOCC3)C2c2ccccc2)cc1C (stereo not drawn) | 0.06 K |
| O=C(C1CCN(c2cc(=O)n3ccccc3n2)CC1)N1CCCC1 | -0.05 K |
| CC(=O)NCCC(=O)C(C#N)C(=O)c1c[nH]c2cc(Cl)ccc12 (stereo not drawn) | -0.32 K |
| COc1cccc(C(=O)C2=C(O)C(=O)N(CCCN3CCOCC3)C2c2ccncc2)c1 (stereo not drawn) | -0.18 K |
| CC(NC(=O)Cc1cc2ccccc2[nH]c1=O)c1ccc2ccccc2c1 (stereo not drawn) | -0.14 K |
| CCCOc1ccc(C2C(C(=O)c3ccccc3)=C(O)C(=O)N2CCCN2CCOCC2)cc1 (stereo not drawn) | 0.07 K |
| Cc1nnnn1Cc1cn2c(C)cccc2n1 | -0.23 K |
| O=C(NCC1CC1)c1ccc2[nH]c3c(c2c1)CCCCC3 | -0.12 K |
| CCOC(=O)c1oc2ccccc2c1COC(=O)Cn1cnnn1 | -0.33 K |
| N#Cc1c(Cn2nnc3ccccc3c2=O)cn2ccccc12 | 0.07 K |
| Cc1nsc(NCc2cccnc2N2CCC(C(N)=O)CC2)n1 | 0.12 K |
